Source: PMC12040169 (PLOS Biology, 2025)
This is one part of the list.

What follows are compounds tested on T1, CTL2-GFP (C. trachomatis L2/434/Bu, GFP-expressing). Details: bulk GFP, single well; 28.5 h, 10 µM; inhibitor.
T1 construct: L2/434/Bu, GFP-expressing
Design: species or system HeLa; Intracellular C. trachomatis growth in HeLa cells, bulk GFP fluorescence relative to DMSO

First: Cc1nnc(SCC(=O)NCCc2ccccc2)nc1O [CBK268045]
Second: Cc1onc(-c2ccccc2)c1CNC(=O)c1cccnc1 [CBK144100]
The “% of control remaining” value of the first is higher: 135.454% for the first, 99.5833% for the second.

Going from `O=C(COc1ccccc1)NC(/C=C/c1ccccc1)c1cc(Cl)c2cccnc2c1O` (stereo not shown) [CBK263994] to `S=c1[nH]nc(Nc2ccccc2)n1-c1ccccc1` [CBK026332], the “% of control remaining” value rises from 66.278% to 113.567%.

Going from `CCc1cnccc1C(=O)N1CCC(NC(=O)c2cnn(C)c2)CC1` [CBK305388] to `CC(C)(C)OC(=O)NC1CCC(NCc2ccncc2)CC1` (stereo not shown) [CBK056688], the “% of control remaining” value falls from 120.699% to 112.253%.

Going from `O=C(c1cc(-c2ccncc2)nc2ccc(Cl)cc12)N1CCN(c2ccc([N+](=O)[O-])cc2)CC1` [CBK267748] to `CC1=NN(c2ccc([N+](=O)[O-])cc2)C(=O)/C1=C/NCCN1CCN(C(=O)c2ccc(F)cc2)CC1` [CBK262920], the “% of control remaining” value falls from 123.431% to 90.0606%.

Going from `CNC(=O)C1(Cc2ccc(-c3ccccc3)cc2)CCN(C(=O)Cc2ccc(C)cc2)CC1` [CBK285769] to `COc1ccc(-c2ccccc2CC2(C(=O)NCc3cccs3)CCOCC2)cc1` [CBK286429], the “% of control remaining” value falls from 120.037% to 117.472%.

Going from `CC(C)CN(CCc1ccc(O)cc1)CC(=O)NC1(c2ccccc2)CCC1` [CBK067781T] to `CN(C(=O)c1ccc2c(c1)NC(=O)CS2)c1ccccc1` [CBK296612], the “% of control remaining” value rises from 73.7362% to 104.845%.

Going from `CC(CN1CCCCC1)OC(=O)COc1ccc(F)cc1` (stereo not shown) [CBK058066C] to `CCOc1ccc(CN(C)CC(=O)Nc2cc(C)no2)cc1` [CBK305605], the “% of control remaining” value rises from 126.073% to 140.595%.

Going from `CN1CCC[C@H]1C(=O)Nc1nc2c(s1)C(=O)CC(C)(C)C2` [CBK144101] to `N#Cc1c(NC(=O)C(=O)NCc2cccnc2)sc2c1CCCC2` [CBK269485], the “% of control remaining” value rises from 103.291% to 133.786%.

Compared with `CCN(CC)S(=O)(=O)c1ccc(Cl)c(C(=O)Oc2cccc3cccnc23)c1` [CBK263205], `CCOC(=O)c1cccnc1-c1ccc(OC)c(OC)c1` [CBK149240] is higher in “% of control remaining” value: 109.333% for the first, 125.248% for the second.

Compared with `CCOc1ccc(-c2cncc(NC3CCC(O)CC3)n2)cc1` (stereo not shown) [CBK065877], `Fc1cccc2sc(Nc3nc(-c4ccccn4)cs3)nc12` [CBK287479] is lower in “% of control remaining” value: 102.499% for the first, 64.4796% for the second.

Going from `NCCCNCCOc1ccc(Cl)c(Cl)c1` [CBK268631C] to `O=C(Nc1ccc(S(=O)(=O)Nc2nccs2)cc1)c1cc(-c2cccnc2)nc2ccc(Cl)cc12` [CBK267721], the “% of control remaining” value rises from 41.7265% to 132.373%.
